No constants are given. Whether binding was seen depends on the method and setting. Some entries that bind do so weakly or less than the wild type.
Biological target: adrenomedullin receptors in the lungs of dogs (dog)
Assay: competition: displacement of iodine-labelled hAM from dog lungs

binding: binds
Binder: TQAQLLRVGCVLGTCQVQNLSHRLWQLMGPAGRQDSAPVDPSSPHSY (peptide, UniProt Q7Z4H4 101-147, looked up) [hAM2]

From patent US20090028790A1 (INSTITUT DE CARDIOLOGIE DE MONTREAL, published 2009)
